From the supplement of paper PMC12823440, “Inhibitors supercharge kinase turnover through native proteolytic circuits” (Nature, 2025)
The other results are listed elsewhere or left out. The calls rarely recur for the same compound in another form.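 Kinases, fused to nanoluciferase, were expressed in K562 cells; luminescence was measured every 4 h from 2 to 18 h as percent of control (DMSO = 100%, positive control = 0%). A time point is decreased if signal falls significantly (2 sigma). Hits were called by the authors by a rule that is not shown; the count of time points alone does not decide it.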

Sequences of proteins named here, by UniProt entry; tags and fusion partners are left off. A change or cut given only in a name is not applied to a line headed by its entry.
UniProt Q9BUB5: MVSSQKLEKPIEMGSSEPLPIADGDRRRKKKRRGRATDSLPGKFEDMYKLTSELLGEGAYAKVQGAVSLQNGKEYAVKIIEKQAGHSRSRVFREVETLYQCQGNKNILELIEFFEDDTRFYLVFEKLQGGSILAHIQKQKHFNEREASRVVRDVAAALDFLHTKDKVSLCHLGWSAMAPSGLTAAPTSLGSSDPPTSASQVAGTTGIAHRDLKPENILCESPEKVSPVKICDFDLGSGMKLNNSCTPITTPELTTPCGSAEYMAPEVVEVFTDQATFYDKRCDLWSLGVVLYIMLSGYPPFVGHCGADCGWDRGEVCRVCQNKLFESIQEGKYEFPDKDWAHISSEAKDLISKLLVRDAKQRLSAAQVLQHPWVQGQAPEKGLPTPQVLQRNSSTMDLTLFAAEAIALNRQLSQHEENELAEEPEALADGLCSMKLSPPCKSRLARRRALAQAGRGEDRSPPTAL
UniProt P09619, whole entry: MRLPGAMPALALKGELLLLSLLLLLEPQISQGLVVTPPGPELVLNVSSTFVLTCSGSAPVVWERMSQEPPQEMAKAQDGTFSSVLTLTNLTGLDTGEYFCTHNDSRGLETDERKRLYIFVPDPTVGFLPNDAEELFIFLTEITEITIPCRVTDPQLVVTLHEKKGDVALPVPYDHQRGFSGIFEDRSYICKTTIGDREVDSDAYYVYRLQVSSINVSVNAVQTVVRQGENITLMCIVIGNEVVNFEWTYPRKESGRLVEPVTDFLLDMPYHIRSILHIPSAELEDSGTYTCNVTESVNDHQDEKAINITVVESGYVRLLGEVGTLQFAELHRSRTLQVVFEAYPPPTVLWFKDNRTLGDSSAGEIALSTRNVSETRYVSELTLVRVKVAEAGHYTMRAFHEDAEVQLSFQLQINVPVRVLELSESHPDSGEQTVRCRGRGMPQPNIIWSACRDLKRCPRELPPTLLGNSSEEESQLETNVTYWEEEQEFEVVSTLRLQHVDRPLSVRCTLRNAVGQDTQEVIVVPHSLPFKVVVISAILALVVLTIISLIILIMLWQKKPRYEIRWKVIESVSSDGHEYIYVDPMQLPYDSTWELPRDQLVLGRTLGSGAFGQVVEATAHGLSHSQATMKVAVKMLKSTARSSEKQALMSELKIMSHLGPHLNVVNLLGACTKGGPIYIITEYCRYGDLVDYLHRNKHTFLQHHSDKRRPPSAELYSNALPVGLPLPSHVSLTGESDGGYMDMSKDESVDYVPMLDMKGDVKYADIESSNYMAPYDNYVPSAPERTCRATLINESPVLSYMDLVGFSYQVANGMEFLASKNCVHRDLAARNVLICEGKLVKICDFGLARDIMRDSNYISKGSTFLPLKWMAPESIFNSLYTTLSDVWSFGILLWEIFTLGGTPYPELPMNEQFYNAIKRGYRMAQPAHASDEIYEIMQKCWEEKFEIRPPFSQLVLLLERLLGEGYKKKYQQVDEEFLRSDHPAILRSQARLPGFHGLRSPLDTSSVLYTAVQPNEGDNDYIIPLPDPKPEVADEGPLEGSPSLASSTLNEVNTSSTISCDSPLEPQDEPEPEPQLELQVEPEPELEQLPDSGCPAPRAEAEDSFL
UniProt Q15118, whole entry, looked up: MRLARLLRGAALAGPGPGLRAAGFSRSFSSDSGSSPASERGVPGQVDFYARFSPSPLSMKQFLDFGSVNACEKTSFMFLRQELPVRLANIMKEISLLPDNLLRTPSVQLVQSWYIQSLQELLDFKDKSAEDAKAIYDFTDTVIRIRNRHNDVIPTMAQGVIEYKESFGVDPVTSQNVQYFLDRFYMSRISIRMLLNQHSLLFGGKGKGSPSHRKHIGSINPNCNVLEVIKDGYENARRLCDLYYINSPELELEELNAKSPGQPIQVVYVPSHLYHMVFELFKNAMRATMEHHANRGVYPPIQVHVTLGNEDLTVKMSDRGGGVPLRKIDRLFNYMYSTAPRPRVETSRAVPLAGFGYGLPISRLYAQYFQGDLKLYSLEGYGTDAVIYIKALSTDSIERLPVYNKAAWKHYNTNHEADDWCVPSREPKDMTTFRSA
UniProt P42356, whole entry, looked up: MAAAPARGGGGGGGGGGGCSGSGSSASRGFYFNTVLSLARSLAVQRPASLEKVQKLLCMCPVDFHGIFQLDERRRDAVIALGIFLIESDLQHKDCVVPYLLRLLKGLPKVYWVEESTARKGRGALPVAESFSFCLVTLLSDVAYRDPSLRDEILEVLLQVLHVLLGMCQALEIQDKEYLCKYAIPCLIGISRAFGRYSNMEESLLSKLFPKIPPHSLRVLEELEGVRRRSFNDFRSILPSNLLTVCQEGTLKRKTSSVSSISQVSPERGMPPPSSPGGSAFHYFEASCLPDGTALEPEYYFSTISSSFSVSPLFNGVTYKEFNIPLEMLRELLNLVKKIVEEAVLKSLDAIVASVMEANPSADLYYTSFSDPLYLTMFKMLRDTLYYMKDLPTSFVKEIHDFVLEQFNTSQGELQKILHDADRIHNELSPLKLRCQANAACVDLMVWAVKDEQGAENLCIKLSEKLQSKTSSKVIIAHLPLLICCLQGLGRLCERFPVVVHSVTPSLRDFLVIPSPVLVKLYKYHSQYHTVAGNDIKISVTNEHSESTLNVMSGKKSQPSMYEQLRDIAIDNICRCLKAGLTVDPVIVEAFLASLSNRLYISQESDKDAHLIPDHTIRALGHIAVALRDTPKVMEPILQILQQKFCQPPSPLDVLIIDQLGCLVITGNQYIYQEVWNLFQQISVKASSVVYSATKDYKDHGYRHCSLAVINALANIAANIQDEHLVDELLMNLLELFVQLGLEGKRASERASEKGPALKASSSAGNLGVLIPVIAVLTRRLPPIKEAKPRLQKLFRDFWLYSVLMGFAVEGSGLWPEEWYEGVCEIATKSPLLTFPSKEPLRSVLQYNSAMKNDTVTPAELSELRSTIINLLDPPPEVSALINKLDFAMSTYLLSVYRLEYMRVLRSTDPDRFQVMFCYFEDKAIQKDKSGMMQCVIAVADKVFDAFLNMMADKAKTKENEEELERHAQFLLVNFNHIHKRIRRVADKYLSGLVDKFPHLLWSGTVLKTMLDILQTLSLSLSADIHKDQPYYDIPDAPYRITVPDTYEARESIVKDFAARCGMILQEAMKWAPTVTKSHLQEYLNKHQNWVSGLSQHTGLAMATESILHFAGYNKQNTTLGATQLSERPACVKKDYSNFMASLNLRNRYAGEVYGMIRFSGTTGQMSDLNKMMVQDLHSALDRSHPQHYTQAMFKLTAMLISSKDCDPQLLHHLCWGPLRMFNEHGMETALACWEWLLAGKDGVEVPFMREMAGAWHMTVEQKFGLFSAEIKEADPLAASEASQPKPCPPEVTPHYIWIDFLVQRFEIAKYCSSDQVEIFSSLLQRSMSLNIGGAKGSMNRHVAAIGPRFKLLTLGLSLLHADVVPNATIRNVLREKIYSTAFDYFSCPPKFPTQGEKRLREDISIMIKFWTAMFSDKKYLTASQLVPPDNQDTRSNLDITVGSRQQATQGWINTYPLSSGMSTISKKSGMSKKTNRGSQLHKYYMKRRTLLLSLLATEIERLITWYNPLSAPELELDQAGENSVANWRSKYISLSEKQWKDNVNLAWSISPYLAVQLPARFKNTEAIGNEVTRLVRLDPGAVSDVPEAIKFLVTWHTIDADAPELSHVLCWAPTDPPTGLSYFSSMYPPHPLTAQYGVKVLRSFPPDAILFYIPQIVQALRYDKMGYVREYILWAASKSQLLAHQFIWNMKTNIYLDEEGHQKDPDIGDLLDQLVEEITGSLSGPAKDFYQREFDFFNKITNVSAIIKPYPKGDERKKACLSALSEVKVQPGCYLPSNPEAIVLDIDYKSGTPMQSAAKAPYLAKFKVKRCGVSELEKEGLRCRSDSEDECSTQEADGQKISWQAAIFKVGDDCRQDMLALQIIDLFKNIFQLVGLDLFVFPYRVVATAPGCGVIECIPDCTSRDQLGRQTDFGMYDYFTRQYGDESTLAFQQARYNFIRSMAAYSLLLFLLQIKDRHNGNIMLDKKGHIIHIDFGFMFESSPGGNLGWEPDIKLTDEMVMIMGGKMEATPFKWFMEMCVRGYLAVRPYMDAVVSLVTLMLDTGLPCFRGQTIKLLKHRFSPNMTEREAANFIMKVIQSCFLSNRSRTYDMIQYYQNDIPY
UniProt Q9UBF8: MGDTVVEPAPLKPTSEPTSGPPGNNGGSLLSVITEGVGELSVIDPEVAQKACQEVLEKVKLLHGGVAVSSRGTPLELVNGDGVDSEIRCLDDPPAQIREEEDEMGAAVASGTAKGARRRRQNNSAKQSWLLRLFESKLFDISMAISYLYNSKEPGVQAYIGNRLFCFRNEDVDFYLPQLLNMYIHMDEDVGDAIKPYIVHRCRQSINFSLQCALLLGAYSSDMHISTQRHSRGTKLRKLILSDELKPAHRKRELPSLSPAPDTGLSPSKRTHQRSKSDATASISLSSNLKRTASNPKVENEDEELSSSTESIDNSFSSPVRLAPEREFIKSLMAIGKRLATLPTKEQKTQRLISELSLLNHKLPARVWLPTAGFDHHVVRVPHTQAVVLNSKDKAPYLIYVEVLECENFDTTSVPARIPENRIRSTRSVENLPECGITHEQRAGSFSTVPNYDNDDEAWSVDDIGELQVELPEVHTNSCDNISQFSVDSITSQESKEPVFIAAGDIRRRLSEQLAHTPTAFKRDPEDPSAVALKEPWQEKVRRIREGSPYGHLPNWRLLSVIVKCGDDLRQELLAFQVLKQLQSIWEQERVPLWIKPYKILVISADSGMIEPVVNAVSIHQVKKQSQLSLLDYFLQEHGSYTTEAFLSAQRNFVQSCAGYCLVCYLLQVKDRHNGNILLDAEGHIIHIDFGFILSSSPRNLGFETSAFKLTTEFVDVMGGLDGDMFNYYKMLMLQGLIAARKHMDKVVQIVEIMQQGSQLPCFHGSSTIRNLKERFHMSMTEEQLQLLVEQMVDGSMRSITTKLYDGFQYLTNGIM
UniProt P53350, whole entry: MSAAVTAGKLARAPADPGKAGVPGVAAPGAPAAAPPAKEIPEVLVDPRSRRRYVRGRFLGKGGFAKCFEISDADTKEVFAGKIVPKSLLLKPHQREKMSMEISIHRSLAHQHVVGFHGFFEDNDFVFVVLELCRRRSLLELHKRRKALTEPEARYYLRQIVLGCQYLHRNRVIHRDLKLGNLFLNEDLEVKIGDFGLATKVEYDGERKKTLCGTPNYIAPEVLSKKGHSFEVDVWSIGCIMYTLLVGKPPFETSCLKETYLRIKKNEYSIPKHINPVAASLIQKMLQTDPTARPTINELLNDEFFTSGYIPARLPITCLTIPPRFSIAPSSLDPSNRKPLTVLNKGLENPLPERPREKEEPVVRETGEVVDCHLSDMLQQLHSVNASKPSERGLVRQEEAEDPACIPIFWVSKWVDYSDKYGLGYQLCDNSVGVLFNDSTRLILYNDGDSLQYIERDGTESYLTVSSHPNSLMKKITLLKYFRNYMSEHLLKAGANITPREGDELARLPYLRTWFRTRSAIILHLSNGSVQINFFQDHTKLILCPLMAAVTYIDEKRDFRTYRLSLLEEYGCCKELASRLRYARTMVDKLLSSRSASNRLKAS
UniProt Q14289, whole entry, looked up: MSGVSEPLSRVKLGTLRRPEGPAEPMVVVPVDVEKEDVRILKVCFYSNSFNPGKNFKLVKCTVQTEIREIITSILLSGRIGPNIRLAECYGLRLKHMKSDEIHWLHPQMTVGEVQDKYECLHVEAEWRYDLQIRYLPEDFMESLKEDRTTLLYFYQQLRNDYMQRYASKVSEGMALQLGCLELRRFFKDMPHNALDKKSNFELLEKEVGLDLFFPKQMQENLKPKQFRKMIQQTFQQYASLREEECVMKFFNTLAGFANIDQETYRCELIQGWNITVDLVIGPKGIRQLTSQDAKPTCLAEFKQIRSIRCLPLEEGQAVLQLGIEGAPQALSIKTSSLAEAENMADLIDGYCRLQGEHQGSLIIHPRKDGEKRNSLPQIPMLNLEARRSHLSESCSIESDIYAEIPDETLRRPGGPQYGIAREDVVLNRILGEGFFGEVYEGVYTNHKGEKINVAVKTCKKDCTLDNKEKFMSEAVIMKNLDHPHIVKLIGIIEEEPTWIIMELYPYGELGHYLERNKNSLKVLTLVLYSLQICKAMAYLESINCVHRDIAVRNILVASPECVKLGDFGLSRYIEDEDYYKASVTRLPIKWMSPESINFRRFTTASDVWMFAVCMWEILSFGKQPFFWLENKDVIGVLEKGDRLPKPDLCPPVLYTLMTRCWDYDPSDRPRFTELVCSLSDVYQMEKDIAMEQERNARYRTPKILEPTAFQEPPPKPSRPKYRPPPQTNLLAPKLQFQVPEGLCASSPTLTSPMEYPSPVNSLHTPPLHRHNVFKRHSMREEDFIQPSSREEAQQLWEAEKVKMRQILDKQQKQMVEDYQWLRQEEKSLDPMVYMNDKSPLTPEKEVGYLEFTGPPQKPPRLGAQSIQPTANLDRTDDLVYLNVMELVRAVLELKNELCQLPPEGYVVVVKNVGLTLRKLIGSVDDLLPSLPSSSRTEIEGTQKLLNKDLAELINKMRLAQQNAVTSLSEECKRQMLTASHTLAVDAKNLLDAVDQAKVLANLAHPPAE

How the values were obtained:
Experiment in all cases: kinase-Nluc reporter destabilization hit call (1 = scored as downregulated) (binary); higher = compound decreases kinase abundance
Details in all cases: K562; 2-18 h
MAPK1 = MAPK1 (UniProt P28482)
MAPK4 = MAPK4 (UniProt P31152)
MAPKAPK2 = MAPKAPK2 (UniProt P49137)
MKNK1 = MKNK1 (UniProt Q9BUB5)
NTRK3 = NTRK3 (UniProt Q16288)
PAK4 = PAK4 (UniProt O96013)
PBK = PBK (UniProt Q96KB5)
PDGFRB = PDGFRB (UniProt P09619)
PDK1 = PDK1 (UniProt Q15118)
PDPK1 = PDPK1 (UniProt O15530)
PIK4CA = PIK4CA (UniProt P42356)
PIK4CB = PIK4CB (UniProt Q9UBF8)
PLK1 = PLK1 (UniProt P53350)
PRKAA1 = PRKAA1 (UniProt Q13131)
PRKCA = PRKCA (UniProt P17252)
PTK2 = PTK2 (UniProt Q05397)
PTK2B = PTK2B (UniProt Q14289)
RAF1 = RAF1 (UniProt P04049)
[1] = target: RAF1_S257L (clone: RAF1_mut) (UniProt P04049)
NTRK2 = NTRK2 (UniProt Q16620)

SMILES	kinase-Nluc reporter destabilization hit call (MAPK1)	kinase-Nluc reporter destabilization hit call (MAPK4)	kinase-Nluc reporter destabilization hit call (MAPKAPK2)	kinase-Nluc reporter destabilization hit call (MKNK1)	kinase-Nluc reporter destabilization hit call (NTRK3)	kinase-Nluc reporter destabilization hit call (PAK4)	kinase-Nluc reporter destabilization hit call (PBK)	kinase-Nluc reporter destabilization hit call (PDGFRB)	kinase-Nluc reporter destabilization hit call (PDK1)	kinase-Nluc reporter destabilization hit call (PDPK1)	kinase-Nluc reporter destabilization hit call (PIK4CA)	kinase-Nluc reporter destabilization hit call (PIK4CB)	kinase-Nluc reporter destabilization hit call (PLK1)	kinase-Nluc reporter destabilization hit call (PRKAA1)	kinase-Nluc reporter destabilization hit call (PRKCA)	kinase-Nluc reporter destabilization hit call (PTK2)	kinase-Nluc reporter destabilization hit call (PTK2B)	kinase-Nluc reporter destabilization hit call (RAF1)	kinase-Nluc reporter destabilization hit call [1]	kinase-Nluc reporter destabilization hit call (NTRK2)
N#Cc1cc(-c2ccnc(Nc3ccc(N4CCOCC4)cc3)n2)ccc1OC1CCOCC1 (10 µM)	inactive: 0	inactive: 0	inactive: 0	inactive: 0	inactive: 0	inactive: 0	inactive: 0	inactive: 0	inactive: 0	inactive: 0	inactive: 0	inactive: 0	inactive: 0	inactive: 0	inactive: 0	inactive: 0	inactive: 0	inactive: 0	inactive: 0	–
CC(C)(CCCCCC(O)CCCCCC(C)(C)C(=O)O)C(=O)O [Bempedoic acid] (10 µM)	inactive: 0	inactive: 0	inactive: 0	inactive: 0	inactive: 0	inactive: 0	inactive: 0	inactive: 0	inactive: 0	inactive: 0	inactive: 0	inactive: 0	inactive: 0	inactive: 0	inactive: 0	inactive: 0	inactive: 0	inactive: 0	inactive: 0	–
CCOC(=O)c1c(N2CCc3ccc(OC)cc3C2)oc(C=C2C=Nc3ncccc32)c1O (10 µM)	inactive: 0	inactive: 0	inactive: 0	inactive: 0	inactive: 0	inactive: 0	inactive: 0	inactive: 0	inactive: 0	inactive: 0	inactive: 0	inactive: 0	inactive: 0	inactive: 0	inactive: 0	inactive: 0	inactive: 0	inactive: 0	inactive: 0	–
Cc1cnc(Cl)nc1-c1ccc(N(Cc2ccc(CNC(=O)C(F)F)cc2)C(=O)c2ccc(O)cc2O)cc1 (10 µM)	inactive: 0	inactive: 0	inactive: 0	inactive: 0	inactive: 0	inactive: 0	inactive: 0	inactive: 0	inactive: 0	inactive: 0	inactive: 0	inactive: 0	inactive: 0	inactive: 0	inactive: 0	inactive: 0	inactive: 0	inactive: 0	inactive: 0	–
CCC[C@H](C)Oc1nc(N)c2[nH]c(=O)n(CCCCCN3CCCCC3)c2n1 (10 µM)	inactive: 0	inactive: 0	inactive: 0	inactive: 0	inactive: 0	inactive: 0	inactive: 0	inactive: 0	inactive: 0	inactive: 0	inactive: 0	inactive: 0	inactive: 0	inactive: 0	inactive: 0	inactive: 0	inactive: 0	inactive: 0	inactive: 0	–
CCOc1cc(N2CCC(O)CC2)ccc1Nc1ncc2c(n1)N(C1CCCC1)CCC(=O)N2C (2.5 µM)	inactive: 0	inactive: 0	inactive: 0	inactive: 0	inactive: 0	inactive: 0	inactive: 0	inactive: 0	inactive: 0	inactive: 0	inactive: 0	inactive: 0	inactive: 0	inactive: 0	inactive: 0	inactive: 0	inactive: 0	inactive: 0	inactive: 0	–
CN(C)CCn1cc2cc(NC(=O)c3cccc(C(F)(F)F)n3)c(C(C)(C)O)cc2n1 (10 µM)	inactive: 0	inactive: 0	inactive: 0	inactive: 0	inactive: 0	inactive: 0	inactive: 0	inactive: 0	inactive: 0	inactive: 0	inactive: 0	inactive: 0	inactive: 0	inactive: 0	inactive: 0	inactive: 0	inactive: 0	inactive: 0	inactive: 0	–
COc1cc2nnc(C(N)=O)c(Nc3ccc(C)cc3F)c2cc1N1CCN(CCO)CC1 (2.5 µM)	inactive: 0	inactive: 0	inactive: 0	inactive: 0	inactive: 0	inactive: 0	inactive: 0	inactive: 0	inactive: 0	inactive: 0	inactive: 0	inactive: 0	inactive: 0	inactive: 0	inactive: 0	inactive: 0	inactive: 0	inactive: 0	inactive: 0	–
COc1cccc(-c2cc(=O)c3ccccc3o2)c1N (10 µM)	inactive: 0	inactive: 0	inactive: 0	inactive: 0	inactive: 0	inactive: 0	inactive: 0	inactive: 0	inactive: 0	inactive: 0	inactive: 0	inactive: 0	inactive: 0	inactive: 0	inactive: 0	inactive: 0	inactive: 0	inactive: 0	inactive: 0	–
CC(ONC(=O)c1cc(C(F)(F)F)cc(C(F)(F)F)c1)C(=O)Nc1ccc(Cl)cc1 (stereo not drawn) (2.5 µM)	inactive: 0	inactive: 0	inactive: 0	inactive: 0	inactive: 0	inactive: 0	inactive: 0	inactive: 0	inactive: 0	inactive: 0	inactive: 0	inactive: 0	inactive: 0	inactive: 0	inactive: 0	active: 1	inactive: 0	inactive: 0	inactive: 0	–
Cc1cc(N2CCOCC2)ccc1Nc1nc(NC2CCCCC2)c2[nH]cnc2n1 (10 µM)	inactive: 0	inactive: 0	inactive: 0	inactive: 0	inactive: 0	inactive: 0	inactive: 0	inactive: 0	inactive: 0	inactive: 0	inactive: 0	inactive: 0	inactive: 0	inactive: 0	inactive: 0	inactive: 0	inactive: 0	inactive: 0	inactive: 0	–
O=C(Nc1ccccc1C(=O)NC1CCCCNC1=O)c1cc2ccccc2s1 (stereo not drawn) (10 µM)	inactive: 0	inactive: 0	inactive: 0	inactive: 0	inactive: 0	inactive: 0	inactive: 0	inactive: 0	inactive: 0	inactive: 0	inactive: 0	inactive: 0	inactive: 0	inactive: 0	inactive: 0	inactive: 0	inactive: 0	inactive: 0	inactive: 0	–
CC(=O)O[C@@H]1[C@@H](OC(C)=O)[C@@H](O)[C@H](Oc2c(-c3ccc(O)cc3)oc3cc(O)cc(O)c3c2=O)O[C@H]1C (10 µM)	inactive: 0	inactive: 0	inactive: 0	inactive: 0	inactive: 0	inactive: 0	inactive: 0	inactive: 0	inactive: 0	inactive: 0	inactive: 0	inactive: 0	inactive: 0	inactive: 0	inactive: 0	inactive: 0	inactive: 0	inactive: 0	inactive: 0	–
Nc1[nH]nc2nnc(-c3c(-c4ccccc4)nn4ccccc34)cc12 (10 µM)	–	inactive: 0	inactive: 0	inactive: 0	inactive: 0	inactive: 0	inactive: 0	inactive: 0	inactive: 0	inactive: 0	inactive: 0	inactive: 0	inactive: 0	inactive: 0	inactive: 0	inactive: 0	inactive: 0	inactive: 0	inactive: 0	inactive: 0
Cn1cnc2c(F)c(Nc3ccc(Br)cc3F)c(C(=O)NOCCO)cc21 [Binimetinib] (10 µM)	inactive: 0	inactive: 0	inactive: 0	inactive: 0	inactive: 0	inactive: 0	inactive: 0	inactive: 0	inactive: 0	inactive: 0	inactive: 0	inactive: 0	inactive: 0	inactive: 0	inactive: 0	inactive: 0	inactive: 0	inactive: 0	inactive: 0	–
C=CC(=O)Nc1cc(Nc2nccc(-c3cn(C)c4ccccc34)n2)c(OCC(F)(F)F)nc1N(C)CCNC [AST5902  (trimesylate)] (2.5 µM)	inactive: 0	inactive: 0	inactive: 0	inactive: 0	inactive: 0	inactive: 0	inactive: 0	inactive: 0	inactive: 0	inactive: 0	inactive: 0	inactive: 0	inactive: 0	inactive: 0	inactive: 0	inactive: 0	inactive: 0	inactive: 0	inactive: 0	–
Fc1ccc(-c2nc3n(c2-c2ccncc2)CCS3)cc1 (10 µM)	inactive: 0	inactive: 0	inactive: 0	inactive: 0	inactive: 0	inactive: 0	inactive: 0	inactive: 0	inactive: 0	inactive: 0	inactive: 0	inactive: 0	inactive: 0	inactive: 0	inactive: 0	inactive: 0	inactive: 0	inactive: 0	inactive: 0	–

Two neighbouring entries out of the list so far, quoted:
SMILES	kinase-Nluc reporter destabilization hit call (MAPK1)	kinase-Nluc reporter destabilization hit call (MAPK4)	kinase-Nluc reporter destabilization hit call (MAPKAPK2)	kinase-Nluc reporter destabilization hit call (MKNK1)	kinase-Nluc reporter destabilization hit call (NTRK3)	kinase-Nluc reporter destabilization hit call (PAK4)	kinase-Nluc reporter destabilization hit call (PBK)	kinase-Nluc reporter destabilization hit call (PDGFRB)	kinase-Nluc reporter destabilization hit call (PDK1)	kinase-Nluc reporter destabilization hit call (PDPK1)	kinase-Nluc reporter destabilization hit call (PIK4CA)	kinase-Nluc reporter destabilization hit call (PIK4CB)	kinase-Nluc reporter destabilization hit call (PLK1)	kinase-Nluc reporter destabilization hit call (PRKAA1)	kinase-Nluc reporter destabilization hit call (PRKCA)	kinase-Nluc reporter destabilization hit call (PTK2)	kinase-Nluc reporter destabilization hit call (PTK2B)	kinase-Nluc reporter destabilization hit call (RAF1)	kinase-Nluc reporter destabilization hit call [1]	kinase-Nluc reporter destabilization hit call (NTRK2)
CC(ONC(=O)c1cc(C(F)(F)F)cc(C(F)(F)F)c1)C(=O)Nc1ccc(Cl)cc1 (stereo not drawn) (2.5 µM)	inactive: 0	inactive: 0	inactive: 0	inactive: 0	inactive: 0	inactive: 0	inactive: 0	inactive: 0	inactive: 0	inactive: 0	inactive: 0	inactive: 0	inactive: 0	inactive: 0	inactive: 0	active: 1	inactive: 0	inactive: 0	inactive: 0	–
Cc1cc(N2CCOCC2)ccc1Nc1nc(NC2CCCCC2)c2[nH]cnc2n1 (10 µM)	inactive: 0	inactive: 0	inactive: 0	inactive: 0	inactive: 0	inactive: 0	inactive: 0	inactive: 0	inactive: 0	inactive: 0	inactive: 0	inactive: 0	inactive: 0	inactive: 0	inactive: 0	inactive: 0	inactive: 0	inactive: 0	inactive: 0	–
